# Laboratory results reported in PMC5946109.
# These are yes or no findings as the source states them, for the method shown. In cells and extracts the contact can be indirect. A yes stands for co-enrichment or nearness to the bait. Other partners may have been found.
# Molecular target: T1, BirA*-TubC (Dictyostelium discoideum) (UniProt Q55AR3)
# T1 sequence: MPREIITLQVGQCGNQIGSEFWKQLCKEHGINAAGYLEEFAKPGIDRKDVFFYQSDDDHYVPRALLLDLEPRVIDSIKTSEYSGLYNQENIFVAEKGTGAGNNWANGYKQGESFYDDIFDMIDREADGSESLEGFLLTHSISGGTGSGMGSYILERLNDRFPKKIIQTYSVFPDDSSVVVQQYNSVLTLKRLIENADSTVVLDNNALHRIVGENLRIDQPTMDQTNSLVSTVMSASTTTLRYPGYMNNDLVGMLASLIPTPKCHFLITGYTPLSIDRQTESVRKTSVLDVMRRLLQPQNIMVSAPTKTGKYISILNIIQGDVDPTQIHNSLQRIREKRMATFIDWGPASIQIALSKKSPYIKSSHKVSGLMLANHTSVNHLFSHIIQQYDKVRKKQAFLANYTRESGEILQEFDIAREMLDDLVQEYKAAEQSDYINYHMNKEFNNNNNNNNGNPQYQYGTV
# Assay: proximity labelling; BioID in Dictyostelium strains expressing biotinylase-tagged proteins; extracts of isolated centrosomes blotted in parallel with streptavidin-alkaline phosphatase and specific antibodies
row,binding,Substance
1,binds,CDK5RAP2
2,binds,CP148
